Our source for the binding values is WO2009082624A2.

By UniProt entry, the sequences of proteins in these tests, tags left out. Where a name states a change or a piece, a line headed by the entry shows the natural chain unless it says otherwise.
UniProt Q96F46: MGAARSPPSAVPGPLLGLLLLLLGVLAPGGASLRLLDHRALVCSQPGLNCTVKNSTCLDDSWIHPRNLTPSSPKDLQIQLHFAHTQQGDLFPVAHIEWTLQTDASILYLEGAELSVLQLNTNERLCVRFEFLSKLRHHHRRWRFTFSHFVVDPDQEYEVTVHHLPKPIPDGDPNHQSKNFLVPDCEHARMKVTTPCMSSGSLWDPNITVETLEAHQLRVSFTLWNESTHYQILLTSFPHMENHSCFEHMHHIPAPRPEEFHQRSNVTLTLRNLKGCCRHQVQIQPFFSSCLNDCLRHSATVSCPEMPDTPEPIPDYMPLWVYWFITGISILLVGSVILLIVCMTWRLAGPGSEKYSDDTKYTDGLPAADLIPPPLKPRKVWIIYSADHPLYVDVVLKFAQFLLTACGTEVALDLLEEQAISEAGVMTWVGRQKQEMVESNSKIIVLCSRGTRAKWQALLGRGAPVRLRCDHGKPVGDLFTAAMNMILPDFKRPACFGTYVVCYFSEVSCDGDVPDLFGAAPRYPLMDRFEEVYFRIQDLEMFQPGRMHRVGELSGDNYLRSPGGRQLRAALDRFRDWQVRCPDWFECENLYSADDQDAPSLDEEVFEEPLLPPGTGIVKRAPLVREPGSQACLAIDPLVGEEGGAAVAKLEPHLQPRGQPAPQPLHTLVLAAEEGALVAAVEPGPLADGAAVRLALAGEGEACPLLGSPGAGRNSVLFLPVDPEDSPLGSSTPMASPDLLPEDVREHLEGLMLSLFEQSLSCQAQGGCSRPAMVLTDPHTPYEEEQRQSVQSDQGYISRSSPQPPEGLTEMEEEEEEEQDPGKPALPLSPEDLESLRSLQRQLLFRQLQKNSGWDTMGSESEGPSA

This assay addresses T1, human IL-17A (IL-17AA homodimer), recombinant (human) (UniProt Q16552).
T1 sequence: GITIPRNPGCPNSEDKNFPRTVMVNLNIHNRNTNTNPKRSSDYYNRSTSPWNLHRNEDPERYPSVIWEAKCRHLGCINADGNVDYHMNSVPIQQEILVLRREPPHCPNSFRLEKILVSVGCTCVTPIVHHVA
Description: SPR (Biacore T-100), IL-17A immobilised. On the technique in general: Surface plasmon resonance follows binding to a sensor surface in real time, without labels.

No constants are given. Whether binding was seen depends on the method and setting. Some results given as binding are weak or reduced against the parent protein; the word gives no strength.

For “human IL-17RA-Fc soluble receptor (ZymoGenetics) (from UniProt Q96F46 33-320) (Fc fusion)”, the binding entry is “binds”.
